Reference: PubChem BioAssay AID1259254 (NCATS, 2017)
The whole screen tested about 59,000 reagents; this is a random part of them. Over the whole deposit, about 1,550 (2.6%) got an active call. 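G2 share is only a proxy for re-replication; each gene was hit by three separate siRNAs, and active genes were retested.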 Raw values vary from plate to plate and are shown uncorrected. Reagents against one gene are numbered here. The record does not give: the amount of reagent.

- Test: 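Genome-wide screen for genes that prevent DNA re-replication in cancer cells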 (primary screen)
- Cell system: human HCT116 colorectal cancer cells
- Knock-down reagent: single siRNA against human genes
- Timing: 3 days
- Measurement: 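Nuclei stained with Hoechst and imaged; cell-cycle phase assigned by DNA content; G2 share scaled per plate, non-targeting siRNA 0%, GMNN siRNA 100%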
- Direction: G2 robust z-score and G2 cells, % of GMNN control: higher = more G2 cells, more excess DNA replication; raw share of cells in G2: higher = larger share of cells with G2 DNA content
- Hit rule: 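Active siRNAs have a G2 robust z of 5 or more median absolute deviations over the median, which in these data means about 38% or higher of GMNN control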

gene symbol | siRNA no. | G2 robust z-score | G2 cells, % of GMNN control | raw share of cells in G2 (%) | Call
RTKN (rhotekin) | 1 | -1.01 | -4.15 | 3.21 | inactive
RTKN (rhotekin) | 2 | -0.0703 | 2.47 | 5.2 | inactive
RTKN (rhotekin) | 3 | -0.603 | -1.28 | 2.89 | inactive
ZDHHC2 (zDHHC palmitoyltransferase 2) | 1 | 2.3 | 19.1 | 14.6 | inactive
ZDHHC2 (zDHHC palmitoyltransferase 2) | 2 | 1.28 | 12 | 8.66 | inactive
ZDHHC2 (zDHHC palmitoyltransferase 2) | 3 | -0.793 | -2.61 | 2.8 | inactive
CCZ1B (CCZ1B vacuolar protein trafficking and biogenesis associated) | 1 | -0.84 | -2.94 | 2.51 | inactive
CCZ1B (CCZ1B vacuolar protein trafficking and biogenesis associated) | 2 | -0.12 | 2.12 | 3.86 | inactive
CCZ1B (CCZ1B vacuolar protein trafficking and biogenesis associated) | 3 | 0.292 | 5.03 | 4.8 | inactive
ACACB (acetyl-CoA carboxylase beta) | 1 | 0.0706 | 3.46 | 5.9 | inactive
ACACB (acetyl-CoA carboxylase beta) | 2 | -0.506 | -0.591 | 4.86 | inactive
ACACB (acetyl-CoA carboxylase beta) | 3 | -0.97 | -3.86 | 2.55 | inactive
NKX6-2 (NK6 homeobox 2) | 1 | 0.723 | 8.06 | 7.77 | inactive
NKX6-2 (NK6 homeobox 2) | 2 | 0.731 | 8.11 | 8.81 | inactive
NKX6-2 (NK6 homeobox 2) | 3 | -0.905 | -3.4 | 2.96 | inactive
OMP (olfactory marker protein) | 1 | 0.744 | 8.2 | 6.32 | inactive
OMP (olfactory marker protein) | 2 | -1.01 | -4.17 | 3.2 | inactive
OMP (olfactory marker protein) | 3 | 0.257 | 4.78 | 6.11 | inactive
PRKCD (protein kinase C delta) | 1 | 2.33 | 19.4 | 12 | inactive
PRKCD (protein kinase C delta) | 2 | -1.82 | -9.81 | 2.1 | inactive
PRKCD (protein kinase C delta) | 3 | -0.0748 | 2.44 | 4.89 | inactive
LOC389834 (ankyrin repeat domain 57 pseudogene) | 1 | -0.435 | -0.0954 | 3.74 | inactive
LOC389834 (ankyrin repeat domain 57 pseudogene) | 2 | -0.391 | 0.218 | 3.5 | inactive
LOC389834 (ankyrin repeat domain 57 pseudogene) | 3 | 0.443 | 6.09 | 7.24 | inactive
CRELD2 (CRELD disulfide isomerase 2) | 1 | -0.655 | -1.64 | 3.86 | inactive
CRELD2 (CRELD disulfide isomerase 2) | 2 | 0.105 | 3.71 | 6.27 | inactive
CRELD2 (CRELD disulfide isomerase 2) | 3 | 0.366 | 5.54 | 4.16 | inactive
C1GALT1C1 (C1GALT1 specific chaperone 1) | 1 | -0.544 | -0.86 | 3.9 | inactive
C1GALT1C1 (C1GALT1 specific chaperone 1) | 2 | -0.998 | -4.05 | 2.66 | inactive
C1GALT1C1 (C1GALT1 specific chaperone 1) | 3 | -0.103 | 2.24 | 7.18 | inactive
IQSEC3P3 (IQ motif and Sec7 domain 3 pseudogene 3) | 1 | -0.597 | -1.23 | 3.13 | inactive
IQSEC3P3 (IQ motif and Sec7 domain 3 pseudogene 3) | 2 | 3.27 | 26 | 13.4 | inactive
IQSEC3P3 (IQ motif and Sec7 domain 3 pseudogene 3) | 3 | -0.36 | 0.437 | 3.03 | inactive
TADA2A (transcriptional adaptor 2A) | 1 | -0.826 | -2.84 | 3.57 | inactive
TADA2A (transcriptional adaptor 2A) | 2 | 0.699 | 7.88 | 6.57 | inactive
TADA2A (transcriptional adaptor 2A) | 3 | -1.17 | -5.24 | 3.92 | inactive
SLC25A46 | 1 | -0.179 | 1.71 | 4.81 | inactive
SLC25A46 | 2 | 0.112 | 3.76 | 4.18 | inactive
SLC25A46 | 3 | -0.183 | 1.68 | 3.46 | inactive
ATG7 (autophagy related 7) | 1 | 1.05 | 10.3 | 10.6 | inactive
ATG7 (autophagy related 7) | 2 | 2.11 | 17.8 | 9.61 | inactive
ATG7 (autophagy related 7) | 3 | 1.43 | 13 | 11.3 | inactive
RNF220 (ring finger protein 220) | 1 | -0.825 | -2.84 | 3.43 | inactive
RNF220 (ring finger protein 220) | 2 | 0.296 | 5.05 | 6.23 | inactive
RNF220 (ring finger protein 220) | 3 | 2.35 | 19.5 | 9.35 | inactive
NDFIP2 (Nedd4 family interacting protein 2) | 1 | 1.49 | 13.5 | 8.43 | inactive
NDFIP2 (Nedd4 family interacting protein 2) | 2 | 0.379 | 5.64 | 6.65 | inactive
NDFIP2 (Nedd4 family interacting protein 2) | 3 | -0.379 | 0.298 | 3.29 | inactive
GARIN3 (golgi associated RAB2 interactor family member 3) | 1 | 1.68 | 14.8 | 7.43 | inactive
GARIN3 (golgi associated RAB2 interactor family member 3) | 2 | 0.31 | 5.15 | 5.45 | inactive
GARIN3 (golgi associated RAB2 interactor family member 3) | 3 | -0.779 | -2.51 | 2.12 | inactive
WNT10A (Wnt family member 10A) | 1 | 0.15 | 4.02 | 6.11 | inactive
WNT10A (Wnt family member 10A) | 2 | 0.396 | 5.75 | 6.82 | inactive
WNT10A (Wnt family member 10A) | 3 | 0.209 | 4.44 | 3.59 | inactive
CSN2 (casein beta) | 1 | 2.85 | 23 | 12.5 | inactive
CSN2 (casein beta) | 2 | 2.09 | 17.7 | 13.6 | inactive
CSN2 (casein beta) | 3 | 1.24 | 11.7 | 8.36 | inactive
RSPRY1 (ring finger and SPRY domain containing 1) | 1 | 0.847 | 8.92 | 8.8 | inactive
RSPRY1 (ring finger and SPRY domain containing 1) | 2 | -0.397 | 0.172 | 4.55 | inactive
RSPRY1 (ring finger and SPRY domain containing 1) | 3 | 6.64 | 49.7 | 28.7 | active
POLR3E (RNA polymerase III subunit E) | 1 | 0.174 | 4.19 | 6.08 | inactive
POLR3E (RNA polymerase III subunit E) | 2 | -0.799 | -2.65 | 5.27 | inactive
POLR3E (RNA polymerase III subunit E) | 3 | -0.548 | -0.891 | 4.12 | inactive
B9D2 (B9 domain containing 2) | 1 | 2.48 | 20.4 | 12.9 | inactive
B9D2 (B9 domain containing 2) | 2 | -0.557 | -0.949 | 3.89 | inactive
B9D2 (B9 domain containing 2) | 3 | 2.11 | 17.8 | 7.26 | inactive
MASP2 (MBL associated serine protease 2) | 1 | 5.77 | 43.6 | 20.3 | active
MASP2 (MBL associated serine protease 2) | 2 | -1.18 | -5.34 | 1.92 | inactive
MASP2 (MBL associated serine protease 2) | 3 | -0.736 | -2.21 | 4.79 | inactive
CRYBG1 (crystallin beta-gamma domain containing 1) | 1 | -0.391 | 0.215 | 5.4 | inactive
CRYBG1 (crystallin beta-gamma domain containing 1) | 2 | 0.439 | 6.06 | 6.31 | inactive
CRYBG1 (crystallin beta-gamma domain containing 1) | 3 | 0.449 | 6.12 | 5.92 | inactive
CIMAP1A (ciliary microtubule associated protein 1A) | 1 | 3.67 | 28.8 | 15.6 | inactive
CIMAP1A (ciliary microtubule associated protein 1A) | 2 | 1.24 | 11.7 | 6.81 | inactive
CIMAP1A (ciliary microtubule associated protein 1A) | 3 | 3.41 | 26.9 | 9.69 | inactive
RPL6 (ribosomal protein L6) | 1 | 4.14 | 32.1 | 18.6 | inactive
RPL6 (ribosomal protein L6) | 2 | 3.96 | 30.9 | 16.4 | inactive
RPL6 (ribosomal protein L6) | 3 | 2.84 | 23 | 11.7 | inactive
NODAL (nodal growth differentiation factor) | 1 | 0.17 | 4.17 | 6.74 | inactive
NODAL (nodal growth differentiation factor) | 2 | 0.674 | 7.71 | 7.27 | inactive
NODAL (nodal growth differentiation factor) | 3 | 3.14 | 25 | 12.4 | inactive
RNF31 (ring finger protein 31) | 1 | -0.745 | -2.28 | 5.43 | inactive
RNF31 (ring finger protein 31) | 2 | -0.62 | -1.4 | 3.94 | inactive
RNF31 (ring finger protein 31) | 3 | 0.0502 | 3.32 | 5.72 | inactive
PXDNL (peroxidasin like) | 1 | -0.954 | -3.74 | 4.17 | inactive
PXDNL (peroxidasin like) | 2 | -0.607 | -1.31 | 4.22 | inactive
PXDNL (peroxidasin like) | 3 | -0.788 | -2.58 | 3.62 | inactive

10 of these entries, set out differently.
{"gene symbol":"CRYBG1 (crystallin beta-gamma domain containing 1)","siRNA no.":2,"G2 robust z-score":0.439,"G2 cells, % of GMNN control":6.06,"raw share of cells in G2 (%)":6.31,"Call":"inactive"}
{"gene symbol":"CRYBG1 (crystallin beta-gamma domain containing 1)","siRNA no.":3,"G2 robust z-score":0.449,"G2 cells, % of GMNN control":6.12,"raw share of cells in G2 (%)":5.92,"Call":"inactive"}
{"gene symbol":"CIMAP1A (ciliary microtubule associated protein 1A)","siRNA no.":1,"G2 robust z-score":3.67,"G2 cells, % of GMNN control":28.8,"raw share of cells in G2 (%)":15.6,"Call":"inactive"}
{"gene symbol":"CIMAP1A (ciliary microtubule associated protein 1A)","siRNA no.":2,"G2 robust z-score":1.24,"G2 cells, % of GMNN control":11.7,"raw share of cells in G2 (%)":6.81,"Call":"inactive"}
{"gene symbol":"CIMAP1A (ciliary microtubule associated protein 1A)","siRNA no.":3,"G2 robust z-score":3.41,"G2 cells, % of GMNN control":26.9,"raw share of cells in G2 (%)":9.69,"Call":"inactive"}
{"gene symbol":"RPL6 (ribosomal protein L6)","siRNA no.":1,"G2 robust z-score":4.14,"G2 cells, % of GMNN control":32.1,"raw share of cells in G2 (%)":18.6,"Call":"inactive"}
{"gene symbol":"RPL6 (ribosomal protein L6)","siRNA no.":2,"G2 robust z-score":3.96,"G2 cells, % of GMNN control":30.9,"raw share of cells in G2 (%)":16.4,"Call":"inactive"}
{"gene symbol":"RPL6 (ribosomal protein L6)","siRNA no.":3,"G2 robust z-score":2.84,"G2 cells, % of GMNN control":23,"raw share of cells in G2 (%)":11.7,"Call":"inactive"}
{"gene symbol":"NODAL (nodal growth differentiation factor)","siRNA no.":1,"G2 robust z-score":0.17,"G2 cells, % of GMNN control":4.17,"raw share of cells in G2 (%)":6.74,"Call":"inactive"}
{"gene symbol":"NODAL (nodal growth differentiation factor)","siRNA no.":2,"G2 robust z-score":0.674,"G2 cells, % of GMNN control":7.71,"raw share of cells in G2 (%)":7.27,"Call":"inactive"}
